Paper PMC4675091
Results are given in words; binding and its absence hold for the method and conditions named. In cells and extracts the contact can be indirect. Here binding means that the protein was enriched with, or labelled near, the bait; the list need not be complete. For some of these results: A no says only that the protein was not detected with the bait.

B1: β-adducin (rat striatal lysate) (protein, UniProt Q05764 1-725)
chain: MSEDTVPEAASPPPSQGQHYFDRFSEDDPEYLRLRNRAADLRQDFNLMEQKKRVTMILQSPSFREELEGLIQEQMKKGNNSSNIWALRQIADFMASTSHAVFPASSMNFSMMTPINDLHTADSLNLAKGERLMRCKISSVYRLLDLYGWAQLSDTYVTLRVSKEQDHFLISPKGVSCSEVTASSLIKVNILGEVVEKGSSCFPVDTTGFSLHSAIYAARPDVRCAIHLHTPATAAVSAMKCGLLPVSHNALLVGDMAYYDFNGEMEQEADRINLQKCLGPTCKILVLRNHGMVALGDTVEEAFYKVFHLQAACEVQVSALSSAGGTENLILLEQEKHRPHEVGSVQWAGSTFGPMQKSRLGEHEFEALMRMLDNLGYRTGYTYRHPFVQEKTKHKSEVEIPATVTAFVFEEDGVPVPALRQHAQKQQKEKTRWLNTPNTYLRVNVADEVQRNMGSPRPKTTWMKADEVEKSSSGMPIRIENPNQFVPLYTDPQEVLDMRNKIREQNRQDIKSAGPQSQLLASVIAEKSRSPSTESQLASKGDADTKDELEETVPNPFSQLTDQELEEYKKEVERKKLEQEQEGEKDAATEEPGSPVKSTPASPVQSPTRAGTKSPAVSPSKASEDAKKTEVSEANTEPEPEKPEGVVVNGKEEEPCVEEVLSKGPGQMTTNADTDGDSYKDKTESVTSGPLSPEGSPSKSPSKKKKKFRTPSFLKKSKKKEKVES
B2: α-adducin (rat striatal lysate) (protein, UniProt Q63028 1-735)
chain: MNGDTRAAVVTSPPPTTAPHKERYFDRVDENNPEYLRERNMAPDLRQDFNMMEQKKRVSMILQSPAFCEELESMIQEQFKKGKNPTGLLALQQIADFMTASVPNVYPAAPQGGMAALNMSLGMVTPVNDLRGSDSIAYDKGEKLLRCKLAAFYRLADLFGWSQLIYNHITTRVNSEQEHFLIVPFGLLYSEVTASSLVKVNLQGDIVDRGSTNLGVNQAGFTLHSAIYAARPDAKCIVHIHTPAGAAVSAMKCGLLPISPEALSLGEVAYHDYHGILVDEEEKILIQKNLGPKSKVLILRNHGLVSVGESVEEAFYYIHNLVVACEIQVRTLASAGGPDNLVLLDPGKYKAKSRSPGTPAGEGSGSPPKWQIGEQEFEALMRMLDNLGYRTGYPYRYPALRERSKKYSDVEVPASVTGHSFASDGDSGTCSPLRHSFQKQQREKTRWLNSGRGDDASEEGQNGSSPKSKTKWTKEDGHRTSTSAVPNLFVPLNTNPKEVQEMRNKIREQNLQDIKTAGPQSQVLCGVMMDRSLVQGELVTASKAIIEKEYQPHVIVSTTGPNPFNTLTDRELEEYRREVERKQKGSEENLDETREQKEKSPPDQSAVPNTPPSTPVKLEGGLPQEPTSRDGSDATTSKPTPPDLSPDEPSEALAFPTVAEEAHASPDTTQPLAEADPEPASASAPGAEEVASPATEEGSPMDPGSDGSPGKSPSKKKKKFRTPSFLKKSKKKSDS

Columns and labels:
[1] = target: casein; test: affinity purification with mass spectrometry; purified DARPP-32 or casein coupled to NHS-activated Sepharose; precleared rat striatal lysate, 2 h at 4 °C, 50 mM Tris-HCl pH 7.5, 0.5% Triton X-100, 1 mM DTT, 2 mM EDTA; salt step elution (band at 150 mM NaCl); excised bands by LC-MS/MS; only the target purified
[2] = target: T1, purified rat DARPP-32 (rat) (UniProt Q6J4I0); test: as above
T1 sequence: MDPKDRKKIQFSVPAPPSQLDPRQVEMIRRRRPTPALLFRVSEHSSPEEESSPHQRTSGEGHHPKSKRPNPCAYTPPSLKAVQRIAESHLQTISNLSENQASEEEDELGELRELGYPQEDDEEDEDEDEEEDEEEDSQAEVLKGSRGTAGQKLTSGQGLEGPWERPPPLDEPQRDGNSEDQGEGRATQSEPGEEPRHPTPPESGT

Binder | binding [1] | binding [2]
B1 | no binding | binds
B2 | no binding | binds
